The list shows a part of the results.
How the values were obtained:
Assay in all cases: log2 fold change, soluble protein after heating vs DMSO (PISA); higher = thermal stabilisation; K562 lysate, 10 uM; active = over 0.2 and 3.5 SD of the protein, either way, in both replicates (recomputed)
lapatinib = compound: CS(=O)(=O)CCNCc1ccc(-c2ccc3ncnc(Nc4ccc(OCc5cccc(F)c5)c(Cl)c4)c3c2)o1 [lapatinib]
Method in brief: (§1)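 Thermal stability, expressed as log-two fold change relative to solvent controls, is given from duplicates. Crude K562 extract in PBS pH 7.4 with 1 mM MgCl2, at 1 mg/mL protein, was treated with 10 μM compound for 30 min and heated in aliquots for 3 min across 48°C-58°C. After pooling, adjustment to 0.5% NP-40 at 4°C and centrifugation at 21,000xg for 90 min, supernatant protein was measured by TMTpro 16plex LC-MS/MS with channel sums equalised.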

Chains of the proteins cited; added tags and fusions are not shown. Lines headed by an entry give the natural chain unless they say otherwise; changes in a name come on top.
UniProt Q9UIJ7: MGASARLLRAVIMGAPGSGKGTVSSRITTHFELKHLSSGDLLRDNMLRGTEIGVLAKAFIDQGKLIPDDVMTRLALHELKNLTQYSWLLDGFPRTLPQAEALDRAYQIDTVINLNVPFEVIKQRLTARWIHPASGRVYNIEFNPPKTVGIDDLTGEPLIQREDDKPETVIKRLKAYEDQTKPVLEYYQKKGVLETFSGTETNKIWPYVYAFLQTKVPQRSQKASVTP
UniProt Q6RW13: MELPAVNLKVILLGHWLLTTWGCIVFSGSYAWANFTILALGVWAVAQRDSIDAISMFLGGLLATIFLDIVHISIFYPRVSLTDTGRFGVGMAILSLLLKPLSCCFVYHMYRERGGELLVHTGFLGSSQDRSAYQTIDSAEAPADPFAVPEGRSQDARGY
UniProt P55196: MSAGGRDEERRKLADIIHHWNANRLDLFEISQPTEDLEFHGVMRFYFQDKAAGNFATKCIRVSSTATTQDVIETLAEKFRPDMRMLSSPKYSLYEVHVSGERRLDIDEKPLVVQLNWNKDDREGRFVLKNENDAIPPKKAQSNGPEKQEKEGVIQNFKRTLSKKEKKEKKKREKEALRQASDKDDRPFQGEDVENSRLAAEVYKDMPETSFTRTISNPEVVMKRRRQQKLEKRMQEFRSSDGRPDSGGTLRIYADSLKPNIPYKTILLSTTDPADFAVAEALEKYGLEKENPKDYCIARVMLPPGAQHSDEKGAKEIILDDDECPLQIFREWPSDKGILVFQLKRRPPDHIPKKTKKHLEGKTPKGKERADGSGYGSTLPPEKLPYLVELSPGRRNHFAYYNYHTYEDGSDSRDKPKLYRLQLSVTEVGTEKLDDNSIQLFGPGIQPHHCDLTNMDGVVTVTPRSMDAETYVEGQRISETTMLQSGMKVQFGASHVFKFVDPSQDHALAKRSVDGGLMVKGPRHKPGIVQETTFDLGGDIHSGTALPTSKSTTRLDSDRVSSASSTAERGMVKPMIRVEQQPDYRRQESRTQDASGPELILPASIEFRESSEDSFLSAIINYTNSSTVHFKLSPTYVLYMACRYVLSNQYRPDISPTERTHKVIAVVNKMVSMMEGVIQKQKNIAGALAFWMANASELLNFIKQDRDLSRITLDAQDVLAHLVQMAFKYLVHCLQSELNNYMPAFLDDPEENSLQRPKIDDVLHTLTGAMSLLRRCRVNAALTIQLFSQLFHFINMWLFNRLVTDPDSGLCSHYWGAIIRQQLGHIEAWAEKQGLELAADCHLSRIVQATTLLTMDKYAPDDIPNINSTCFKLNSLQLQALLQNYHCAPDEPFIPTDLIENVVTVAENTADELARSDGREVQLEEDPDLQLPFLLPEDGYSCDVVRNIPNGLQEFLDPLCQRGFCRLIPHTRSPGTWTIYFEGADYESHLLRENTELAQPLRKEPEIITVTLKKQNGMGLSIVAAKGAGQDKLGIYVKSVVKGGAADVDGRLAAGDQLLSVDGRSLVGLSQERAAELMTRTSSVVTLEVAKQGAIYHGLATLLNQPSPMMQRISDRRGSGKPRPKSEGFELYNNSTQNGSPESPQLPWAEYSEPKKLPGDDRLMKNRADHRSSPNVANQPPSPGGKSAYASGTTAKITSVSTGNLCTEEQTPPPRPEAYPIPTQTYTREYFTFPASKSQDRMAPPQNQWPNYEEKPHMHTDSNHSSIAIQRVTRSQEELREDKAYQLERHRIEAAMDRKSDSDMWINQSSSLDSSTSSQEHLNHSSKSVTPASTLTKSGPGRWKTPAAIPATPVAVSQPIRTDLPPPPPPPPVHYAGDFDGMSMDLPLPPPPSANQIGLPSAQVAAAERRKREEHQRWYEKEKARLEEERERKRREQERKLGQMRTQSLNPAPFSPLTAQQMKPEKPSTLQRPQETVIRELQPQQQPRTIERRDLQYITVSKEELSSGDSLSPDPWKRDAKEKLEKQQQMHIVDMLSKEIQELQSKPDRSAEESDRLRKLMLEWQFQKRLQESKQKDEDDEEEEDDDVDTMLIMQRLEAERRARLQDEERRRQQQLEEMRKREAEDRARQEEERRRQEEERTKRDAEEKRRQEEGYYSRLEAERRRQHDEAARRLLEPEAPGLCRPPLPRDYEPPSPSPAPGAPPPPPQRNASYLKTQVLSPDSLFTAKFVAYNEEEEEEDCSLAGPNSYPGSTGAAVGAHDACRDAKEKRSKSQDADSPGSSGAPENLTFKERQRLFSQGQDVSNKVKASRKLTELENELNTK
UniProt Q7Z6V5: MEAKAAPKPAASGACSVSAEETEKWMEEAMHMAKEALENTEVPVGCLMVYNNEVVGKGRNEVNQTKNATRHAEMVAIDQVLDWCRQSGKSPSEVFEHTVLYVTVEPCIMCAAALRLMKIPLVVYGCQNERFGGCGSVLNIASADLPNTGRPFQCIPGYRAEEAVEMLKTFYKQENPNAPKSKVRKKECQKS
UniProt P27144: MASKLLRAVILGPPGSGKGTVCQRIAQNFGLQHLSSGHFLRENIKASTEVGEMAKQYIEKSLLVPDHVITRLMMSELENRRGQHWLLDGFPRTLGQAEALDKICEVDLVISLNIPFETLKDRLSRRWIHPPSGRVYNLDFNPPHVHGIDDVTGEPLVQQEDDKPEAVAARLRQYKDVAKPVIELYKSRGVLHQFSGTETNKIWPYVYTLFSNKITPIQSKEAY
UniProt Q9ULX6: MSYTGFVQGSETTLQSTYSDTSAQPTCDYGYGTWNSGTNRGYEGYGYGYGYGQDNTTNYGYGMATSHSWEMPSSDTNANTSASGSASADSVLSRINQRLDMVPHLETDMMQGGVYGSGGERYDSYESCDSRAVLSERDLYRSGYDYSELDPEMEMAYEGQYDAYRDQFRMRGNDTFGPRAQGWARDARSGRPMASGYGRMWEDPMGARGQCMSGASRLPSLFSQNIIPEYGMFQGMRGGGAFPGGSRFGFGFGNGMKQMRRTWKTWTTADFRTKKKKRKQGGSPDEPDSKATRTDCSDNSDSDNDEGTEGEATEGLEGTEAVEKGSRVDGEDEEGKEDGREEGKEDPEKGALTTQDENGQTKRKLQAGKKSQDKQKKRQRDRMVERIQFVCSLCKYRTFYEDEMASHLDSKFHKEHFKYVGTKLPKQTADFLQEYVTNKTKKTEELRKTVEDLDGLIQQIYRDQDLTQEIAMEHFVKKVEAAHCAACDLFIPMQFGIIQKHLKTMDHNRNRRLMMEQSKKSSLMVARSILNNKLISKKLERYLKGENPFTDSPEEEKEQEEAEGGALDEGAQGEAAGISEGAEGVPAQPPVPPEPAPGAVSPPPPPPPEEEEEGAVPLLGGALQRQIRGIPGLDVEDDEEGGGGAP
UniProt Q13443: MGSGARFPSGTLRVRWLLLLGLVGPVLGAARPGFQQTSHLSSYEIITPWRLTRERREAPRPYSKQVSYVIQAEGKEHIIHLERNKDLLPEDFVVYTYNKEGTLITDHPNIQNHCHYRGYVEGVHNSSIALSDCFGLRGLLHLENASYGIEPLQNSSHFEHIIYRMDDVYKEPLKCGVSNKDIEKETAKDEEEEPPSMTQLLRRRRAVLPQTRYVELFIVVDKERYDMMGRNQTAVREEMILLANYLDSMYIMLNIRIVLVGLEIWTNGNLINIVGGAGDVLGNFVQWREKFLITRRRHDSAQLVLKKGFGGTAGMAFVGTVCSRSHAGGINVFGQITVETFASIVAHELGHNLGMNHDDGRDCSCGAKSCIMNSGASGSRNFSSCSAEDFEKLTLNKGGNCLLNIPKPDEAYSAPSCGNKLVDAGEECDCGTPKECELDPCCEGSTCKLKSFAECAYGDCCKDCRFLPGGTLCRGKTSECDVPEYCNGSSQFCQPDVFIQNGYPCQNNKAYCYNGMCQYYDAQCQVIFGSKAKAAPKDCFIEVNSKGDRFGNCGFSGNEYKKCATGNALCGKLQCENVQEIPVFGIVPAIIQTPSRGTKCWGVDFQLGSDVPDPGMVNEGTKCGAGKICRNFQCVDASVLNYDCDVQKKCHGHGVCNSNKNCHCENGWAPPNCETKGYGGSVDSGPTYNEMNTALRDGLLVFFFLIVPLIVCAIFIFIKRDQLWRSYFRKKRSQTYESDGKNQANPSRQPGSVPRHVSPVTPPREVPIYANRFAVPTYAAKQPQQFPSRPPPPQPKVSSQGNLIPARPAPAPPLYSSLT
UniProt Q9NR19, whole entry, looked up: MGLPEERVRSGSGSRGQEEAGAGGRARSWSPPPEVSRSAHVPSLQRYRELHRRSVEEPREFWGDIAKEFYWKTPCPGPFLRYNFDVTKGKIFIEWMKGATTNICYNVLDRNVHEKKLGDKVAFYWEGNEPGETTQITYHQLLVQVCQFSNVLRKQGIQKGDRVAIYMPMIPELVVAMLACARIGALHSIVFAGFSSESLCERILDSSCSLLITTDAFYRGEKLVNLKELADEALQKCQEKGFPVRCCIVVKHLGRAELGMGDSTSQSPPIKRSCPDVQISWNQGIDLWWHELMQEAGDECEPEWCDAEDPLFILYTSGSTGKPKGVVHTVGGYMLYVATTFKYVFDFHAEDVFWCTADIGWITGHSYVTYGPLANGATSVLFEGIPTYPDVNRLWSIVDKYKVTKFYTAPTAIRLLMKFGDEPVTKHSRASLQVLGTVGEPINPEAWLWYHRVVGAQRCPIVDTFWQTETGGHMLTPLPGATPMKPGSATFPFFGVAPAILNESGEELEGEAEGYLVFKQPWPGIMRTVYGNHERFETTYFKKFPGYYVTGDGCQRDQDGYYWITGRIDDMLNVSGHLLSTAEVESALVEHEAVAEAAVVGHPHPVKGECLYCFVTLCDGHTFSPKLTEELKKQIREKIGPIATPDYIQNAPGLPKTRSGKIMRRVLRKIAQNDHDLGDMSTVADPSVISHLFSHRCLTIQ
UniProt Q6ULP2: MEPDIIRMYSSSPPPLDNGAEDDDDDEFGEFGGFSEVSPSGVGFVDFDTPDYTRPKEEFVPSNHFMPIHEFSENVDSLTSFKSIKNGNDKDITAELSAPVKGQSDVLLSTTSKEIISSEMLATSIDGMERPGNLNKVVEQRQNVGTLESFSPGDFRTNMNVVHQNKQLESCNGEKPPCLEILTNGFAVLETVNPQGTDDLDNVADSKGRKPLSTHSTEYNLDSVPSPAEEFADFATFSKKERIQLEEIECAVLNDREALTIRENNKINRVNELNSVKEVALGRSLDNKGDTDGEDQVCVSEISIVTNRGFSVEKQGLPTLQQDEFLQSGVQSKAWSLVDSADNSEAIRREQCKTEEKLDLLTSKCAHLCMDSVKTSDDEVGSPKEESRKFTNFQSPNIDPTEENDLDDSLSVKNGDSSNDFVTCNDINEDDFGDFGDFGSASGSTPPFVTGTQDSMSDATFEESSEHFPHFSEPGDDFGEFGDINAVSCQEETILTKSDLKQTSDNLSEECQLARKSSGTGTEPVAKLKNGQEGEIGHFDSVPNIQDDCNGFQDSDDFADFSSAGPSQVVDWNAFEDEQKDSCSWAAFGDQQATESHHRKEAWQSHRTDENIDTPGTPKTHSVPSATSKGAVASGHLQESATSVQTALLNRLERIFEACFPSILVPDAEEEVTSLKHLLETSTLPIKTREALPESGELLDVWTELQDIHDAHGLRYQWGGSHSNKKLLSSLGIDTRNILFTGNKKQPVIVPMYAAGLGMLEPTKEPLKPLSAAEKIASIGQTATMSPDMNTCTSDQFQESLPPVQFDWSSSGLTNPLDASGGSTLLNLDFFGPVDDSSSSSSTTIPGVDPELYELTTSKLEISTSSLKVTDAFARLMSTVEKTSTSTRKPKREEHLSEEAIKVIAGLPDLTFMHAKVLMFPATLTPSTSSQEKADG
UniProt P35611: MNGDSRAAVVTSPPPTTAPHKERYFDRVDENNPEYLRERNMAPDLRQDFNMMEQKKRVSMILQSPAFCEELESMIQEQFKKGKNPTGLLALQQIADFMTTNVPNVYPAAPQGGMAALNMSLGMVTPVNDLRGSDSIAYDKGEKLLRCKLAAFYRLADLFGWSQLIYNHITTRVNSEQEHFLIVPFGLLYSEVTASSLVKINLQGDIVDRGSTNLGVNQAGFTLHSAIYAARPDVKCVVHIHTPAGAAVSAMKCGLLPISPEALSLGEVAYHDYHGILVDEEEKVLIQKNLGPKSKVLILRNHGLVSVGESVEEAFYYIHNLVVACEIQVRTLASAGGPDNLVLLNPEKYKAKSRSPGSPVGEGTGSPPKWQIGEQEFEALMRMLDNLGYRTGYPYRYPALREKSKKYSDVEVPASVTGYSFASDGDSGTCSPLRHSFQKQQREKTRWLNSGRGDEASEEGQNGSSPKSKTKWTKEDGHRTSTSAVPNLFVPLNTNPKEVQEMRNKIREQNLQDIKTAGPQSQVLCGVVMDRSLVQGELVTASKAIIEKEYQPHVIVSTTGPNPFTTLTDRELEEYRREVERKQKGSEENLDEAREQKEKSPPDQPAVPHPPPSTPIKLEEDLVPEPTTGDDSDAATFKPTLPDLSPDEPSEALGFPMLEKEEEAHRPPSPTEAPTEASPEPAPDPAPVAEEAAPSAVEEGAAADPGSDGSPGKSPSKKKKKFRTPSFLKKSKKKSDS

pictilisib = compound: CS(=O)(=O)N1CCN(Cc2cc3nc(-c4cccc5[nH]ncc45)nc(N4CCOCC4)c3s2)CC1 [pictilisib]
Method in brief: as §1

crizotinib = compound: C[C@@H](Oc1cc(-c2cnn(C3CCNCC3)c2)cnc1N)c1c(Cl)ccc(F)c1Cl [crizotinib]
Method in brief: as §1

[1] = compound: C[C@H](C1=CC=C(C=C1)C(=O)NC2=C3C=CNC3=NC=C2)N
Method in brief: as §1

duvelisib = compound: C[C@H](Nc1ncnc2nc[nH]c12)c1cc2cccc(Cl)c2c(=O)n1-c1ccccc1 [duvelisib]
Method in brief: as §1

gandotinib = compound: Cc1cc(Nc2cc(CN3CCOCC3)c3nc(C)c(Cc4ccc(Cl)cc4F)n3n2)n[nH]1 [gandotinib]
Method in brief: as §1

tozasertib = compound: Cc1cc(Nc2cc(N3CCN(C)CC3)nc(Sc3ccc(NC(=O)C4CC4)cc3)n2)n[nH]1 [tozasertib]
Method in brief: as §1

doramapimod = compound: Cc1ccc(-n2nc(C(C)(C)C)cc2NC(=O)Nc2ccc(OCCN3CCOCC3)c3ccccc23)cc1 [doramapimod]
Method in brief: as §1

bafetinib = compound: Cc1ccc(NC(=O)c2ccc(CN3CC[C@H](N(C)C)C3)c(C(F)(F)F)c2)cc1Nc1nccc(-c2cncnc2)n1 [bafetinib]
Method in brief: as §1

[2] = compound: Cc1cccc(CC(=O)N2CCc3c2ccc(-c2cn(C)c4ncnc(N)c24)c3F)n1
Method in brief: as §1

nilotinib = compound: Cc1cn(-c2cc(NC(=O)c3ccc(C)c(Nc4nccc(-c5cccnc5)n4)c3)cc(C(F)(F)F)c2)cn1 [nilotinib]
Method in brief: as §1

[3] = compound: Cc1nc(Nc2n[nH]c3c2CN(C(=O)N[C@H](CN(C)C)c2ccccc2)C3(C)C)c2sccc2n1
Method in brief: as §1

dasatinib = compound: Cc1nc(Nc2ncc(C(=O)Nc3c(C)cccc3Cl)s2)cc(N2CCN(CCO)CC2)n1 [dasatinib]
Method in brief: as §1

[4] = compound: Cc1ncc(-c2ccnc(Nc3ccc(S(C)(=O)=O)cc3)n2)n1C(C)C
Method in brief: as §1

[5] = compound: Cn1cc(-c2ccc3c(c2)CCN3C(=O)Cc2cccc(C(F)(F)F)c2)c2c(N)ncnc21
Method in brief: as §1

quisinostat = compound: Cn1cc(CNCC2CCN(c3ncc(C(=O)NO)cn3)CC2)c2ccccc21 [quisinostat]
Method in brief: as §1

tipifarnib = compound: Cn1cncc1[C@@](N)(c1ccc(Cl)cc1)c1ccc2c(c1)c(-c1cccc(Cl)c1)cc(=O)n2C [tipifarnib]
Method in brief: as §1

[6] = compound: NC(=O)Nc1cc(-c2cccc(F)c2)sc1C(=O)N[C@H]1CCCNC1
Method in brief: as §1

[7] = compound: NC(=O)c1cnc(N[C@@H]2CCCC[C@@H]2N)nc1Nc1cccc(-n2nccn2)c1
Method in brief: as §1

[8] = compound: NC1(c2ccc(-c3nc4ccn5c(=O)[nH]nc5c4cc3-c3ccccc3)cc2)CCC1
Method in brief: as §1

| Target | log2 fold change (lapatinib) | log2 fold change (pictilisib) | log2 fold change (crizotinib) | log2 fold change [1] | log2 fold change (duvelisib) | log2 fold change (gandotinib) | log2 fold change (tozasertib) | log2 fold change (doramapimod) | log2 fold change (bafetinib) | log2 fold change [2] | log2 fold change (nilotinib) | log2 fold change [3] | log2 fold change (dasatinib) | log2 fold change [4] | log2 fold change [5] | log2 fold change (quisinostat) | log2 fold change (tipifarnib) | log2 fold change [6] | log2 fold change [7] | log2 fold change [8] |
| --- | --- | --- | --- | --- | --- | --- | --- | --- | --- | --- | --- | --- | --- | --- | --- | --- | --- | --- | --- | --- |
| ACTN4 (UniProt K7EJH8) | inactive: 0.024 | inactive: 0.089 | inactive: -0.037 | inactive: -0.061 | inactive: 0.084 | inactive: 0.117 | inactive: 0.021 | inactive: 0.087 | inactive: -0.02 | inactive: -0.095 | inactive: 0.036 | inactive: -0.014 | inactive: 0.076 | inactive: 0.076 | inactive: 0.004 | inactive: -0.084 | inactive: 0.017 | inactive: 0.107 | inactive: -0.007 | – |
| ACTG1 (UniProt I3L4N8) | inactive: -0.072 | inactive: -0.209 | inactive: -0.066 | inactive: -0.039 | inactive: 0.13 | inactive: -0.159 | inactive: 0.083 | inactive: -0.065 | inactive: -0.183 | inactive: -0.096 | inactive: -0.068 | inactive: 0.104 | inactive: 0.055 | inactive: -0.045 | inactive: -0.171 | inactive: 0.032 | inactive: 0.11 | inactive: -0.053 | inactive: -0.033 | inactive: -0.114 |
| AK3 (UniProt Q9UIJ7) | inactive: -0.014 | inactive: -0.023 | inactive: 0.043 | inactive: 0.033 | inactive: -0.014 | inactive: -0.039 | inactive: 0.035 | inactive: -0.039 | inactive: 0.004 | inactive: -0.026 | inactive: -0.011 | inactive: -0.012 | inactive: 0.002 | inactive: 0.011 | inactive: 0.002 | inactive: 0.057 | inactive: 0.022 | inactive: -0.014 | inactive: -0.004 | inactive: 0.002 |
| AHNAK (UniProt Q09666) | inactive: 0.02 | inactive: 0.001 | inactive: 0.031 | inactive: -0.014 | inactive: -0.014 | inactive: 0.054 | inactive: -0.003 | inactive: -0.007 | inactive: -0.009 | inactive: -0.028 | inactive: 0.031 | inactive: -0.013 | inactive: 0.013 | inactive: 0.023 | inactive: -0.034 | inactive: -0.001 | inactive: -0.008 | inactive: -0.02 | inactive: -0.024 | inactive: 0.018 |
| AGTRAP (UniProt Q6RW13) | inactive: 0.003 | inactive: 0.043 | inactive: -0.025 | inactive: -0.215 | inactive: -0.028 | inactive: 0.127 | inactive: -0.056 | inactive: -0.003 | inactive: -0.041 | inactive: 0.215 | inactive: -0.016 | inactive: -0.02 | inactive: -0.019 | inactive: 0.075 | inactive: 0.049 | inactive: -0.071 | inactive: -0.05 | inactive: 0.038 | inactive: -0.046 | inactive: -0.017 |
| AGTPBP1 (UniProt Q9UPW5) | inactive: 0.008 | inactive: -0.103 | inactive: -0.121 | inactive: 0.018 | inactive: 0.009 | inactive: -0.271 | inactive: 0.028 | inactive: 0.007 | inactive: 0.001 | inactive: 0.113 | inactive: 0.077 | inactive: -0.205 | inactive: 0.038 | inactive: 0.1 | inactive: -0.032 | inactive: -0.197 | inactive: 0.207 | inactive: 0.038 | inactive: 0.045 | inactive: 0.115 |
| AFDN isoform 1 (UniProt P55196) | inactive: -0.009 | inactive: -0.009 | inactive: -0.037 | inactive: 0.027 | inactive: -0.009 | inactive: -0.059 | inactive: 0.008 | inactive: 0.029 | inactive: -0.038 | inactive: 0.002 | inactive: 0.014 | inactive: 0 | inactive: -0.025 | inactive: -0.005 | inactive: -0.004 | inactive: -0.027 | inactive: -0.015 | inactive: 0.016 | inactive: -0.009 | inactive: 0.005 |
| ADAT2 (UniProt Q7Z6V5) | inactive: 0.012 | inactive: 0.058 | inactive: 0.008 | inactive: -0.036 | inactive: 0.002 | inactive: 0.019 | inactive: 0.018 | inactive: 0.001 | inactive: 0.028 | inactive: 0.012 | inactive: 0.013 | inactive: -0.044 | inactive: 0.038 | inactive: -0.043 | inactive: 0.028 | inactive: 0.025 | inactive: -0.068 | inactive: 0 | inactive: 0 | inactive: 0.001 |
| AK4 (UniProt P27144) | inactive: -0.003 | inactive: -0.033 | inactive: 0.028 | inactive: -0.027 | inactive: 0.014 | inactive: -0.019 | inactive: 0.052 | inactive: 0.03 | inactive: -0.024 | inactive: 0.012 | inactive: -0.006 | inactive: 0.003 | inactive: -0.04 | inactive: 0.042 | inactive: 0.04 | inactive: -0.012 | inactive: 0.001 | inactive: 0.018 | inactive: -0.023 | inactive: -0.012 |
| AKAP8L (UniProt Q9ULX6) | inactive: 0.017 | inactive: -0.018 | inactive: 0.053 | inactive: -0.05 | inactive: 0.038 | inactive: 0.033 | inactive: 0 | inactive: -0.153 | inactive: 0.016 | inactive: 0.011 | active: -0.267 | inactive: 0.022 | inactive: -0.062 | inactive: 0.016 | inactive: 0.037 | inactive: -0.024 | inactive: -0.011 | inactive: 0.055 | inactive: 0.002 | inactive: 0.028 |
| ADAM9 (UniProt Q13443) | inactive: -0.018 | inactive: 0.002 | inactive: 0.03 | inactive: -0.044 | inactive: -0.018 | inactive: -0.002 | inactive: -0.048 | inactive: 0.057 | inactive: 0.035 | inactive: 0.038 | inactive: 0.006 | inactive: -0.017 | inactive: 0.012 | inactive: -0.011 | inactive: -0.011 | inactive: 0.001 | inactive: 0.046 | inactive: -0.016 | inactive: 0.042 | inactive: 0.019 |
| ACSS2 isoform 2 (UniProt Q9NR19) | inactive: -0.002 | inactive: -0.016 | inactive: -0.012 | inactive: -0.007 | inactive: -0.009 | inactive: -0.06 | inactive: 0.06 | inactive: 0.043 | inactive: -0.024 | inactive: 0.011 | inactive: -0.012 | inactive: 0.02 | inactive: -0.025 | inactive: -0.027 | inactive: 0.023 | inactive: -0.013 | inactive: 0.018 | inactive: -0.013 | inactive: 0.013 | inactive: 0.028 |
| ADAR isoform 4 (UniProt P55265) | inactive: 0.023 | inactive: -0.135 | inactive: 0 | inactive: 0.01 | inactive: 0.016 | inactive: -0.038 | inactive: 0.016 | inactive: 0.069 | inactive: -0.16 | inactive: 0.028 | inactive: 0.006 | inactive: 0.012 | inactive: -0.026 | inactive: -0.027 | inactive: 0.009 | inactive: -0.114 | inactive: -0.009 | inactive: 0.015 | inactive: -0.009 | inactive: 0.029 |
| AFTPH isoform 9 (UniProt Q6ULP2) | inactive: -0.029 | inactive: 0 | inactive: -0.006 | inactive: 0.061 | inactive: -0.017 | inactive: 0 | inactive: -0.017 | inactive: -0.01 | inactive: -0.029 | inactive: 0.022 | inactive: 0.086 | inactive: 0.192 | inactive: -0.018 | inactive: -0.004 | inactive: 0.088 | inactive: 0.019 | inactive: -0.027 | inactive: 0.029 | inactive: 0.084 | inactive: -0.016 |
| ADD1 isoform 3 (UniProt P35611) | inactive: -0.017 | inactive: 0.003 | inactive: 0.014 | inactive: -0.011 | inactive: 0.014 | inactive: -0.001 | inactive: -0.002 | inactive: 0.002 | inactive: 0.002 | inactive: -0.019 | inactive: 0.027 | inactive: -0.005 | inactive: 0.007 | inactive: -0.017 | inactive: -0.012 | inactive: -0.016 | inactive: 0.019 | inactive: 0.007 | inactive: -0.015 | inactive: 0.011 |
| AGO3 (UniProt Q9H9G7) | inactive: -0.015 | inactive: -0.157 | inactive: 0.031 | inactive: -0.075 | inactive: -0.018 | inactive: 0.017 | inactive: 0.028 | inactive: -0.009 | inactive: -0.066 | inactive: -0.018 | inactive: -0.158 | inactive: 0.013 | inactive: 0 | inactive: 0.054 | inactive: 0.021 | inactive: 0 | inactive: -0.039 | inactive: 0.042 | inactive: -0.005 | inactive: -0.01 |

Some entries already given, reduced to log2 fold change (doramapimod) and log2 fold change [1]:
Target	log2 fold change (doramapimod)	log2 fold change [1]
AGTPBP1 (UniProt Q9UPW5)	inactive: 0.007	inactive: 0.018
AFTPH isoform 9 (UniProt Q6ULP2)	inactive: -0.01	inactive: 0.061

Reference: the supplement of paper PMC10849652
